Measured values as given in publication doi:10.1101/2021.03.10.434893.

Tests used:
[1] = molecular target: uS12m (pig (endogenous in porcine liver)); experiment: cryo-EM structure
[2] = molecular target: uL16m (pig (endogenous in porcine liver)); experiment: cryo-EM structure

binding [1]: binds weakly
binding [2]: binds
B1: mitochondrial ribosome recycling factor (protein, UniProt Q96E11 27-262)
chain: GGSGSGSEVTLKTVHERQHGHRQYMAYSAVPVRHFATKKAKAKGKGQSQTRVNINAALVEDIINLEEVNEEMKSVIEALKDNFNKTLNIRTSPGSLDKIAVVTADGKLALNQISQISMKSPQLILVNMASFPECTAAAIKAIRESGMNLNPEVEGTLIRVPIPQVTREHREMLVKLAKQNTNKAKDSLRKVRTNSMNKLKKSKDTVSEDTIRLIEKQISQMADDTVAELDRHLAVKTKELLG

binding [1]: binds
B2: mitochondria release factor 1a (protein, UniProt Q9UGC7 33-380)
chain: GGSGSGLEELFTRGGPLRTFLERQAGSEAHLKVRRPELLAVIKLLNEKERELRETEHLLHDENEDLRKLAENEITLCQKEITQLKHQIILLLVPSEETDENDLILEVTAGVGGQEAMLFTSEIFDMYQQYAAFKRWHFETLEYFPSELGGLRHASASIGGSEAYRHMKFEGGVHRVQRVPKTEKQGRVHTSTMTVAILPQPTEINLVINPKDLRIDTKRASGAGGQHVNTTDSAVRIVHLPTGVVSECQQERSQLKNKELAMTKLRAKLYSMHLEEEINKRQNARKIQIGSKGRSEKIRTYNFPQNRVTDHRINKTLHDLETFMQGDYLLDELVQSLKEYADYESLVEIISQKV

No constants are given. Whether binding was seen depends on the method and setting. A result given as binding can be weak or reduced; the word gives no strength. Each block holds one binder with its values, some of them ahead of it.
